This is one part of the list.
compound: CCn1c(C(=O)N(C2CC2)C2CC2)cc2c3c(ncn3C)c(Nc3cc(C)n(C)n3)nc21; experiment: log2 fold change, soluble protein after heating vs DMSO (PISA); higher = thermal stabilisation; K562 cells, 10 uM, 30 min; active = over 0.2 and 3.5 SD of the protein, either way, in both replicates (recomputed)
Method in brief: (§1)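 Soluble protein was quantified by TMTpro 16plex LC-MS/MS after channel sums were equalised. It was obtained as the supernatant after 21,000xg for 90 min from pooled aliquots of K562 cells (2×10^6 cells/mL, 10 μM compound, 30 min) heated for 3 min across 48°C-58°C and extracted in PBS with 0.5% NP-40 at 4°C. Thermal stability values are relative to control samples and come from duplicates. They are given as log2 fold changes.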

By UniProt entry, the sequences of proteins in these tests, tags left out. Where a name states a change or a piece, a line headed by the entry shows the natural chain unless it says otherwise.
UniProt P54105: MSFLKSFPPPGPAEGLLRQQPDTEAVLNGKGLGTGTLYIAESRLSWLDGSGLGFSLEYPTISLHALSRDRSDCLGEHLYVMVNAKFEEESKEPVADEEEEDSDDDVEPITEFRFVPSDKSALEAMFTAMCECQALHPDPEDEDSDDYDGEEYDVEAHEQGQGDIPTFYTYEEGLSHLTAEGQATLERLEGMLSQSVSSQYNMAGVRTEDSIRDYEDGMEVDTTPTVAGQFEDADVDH
UniProt Q8NFW8: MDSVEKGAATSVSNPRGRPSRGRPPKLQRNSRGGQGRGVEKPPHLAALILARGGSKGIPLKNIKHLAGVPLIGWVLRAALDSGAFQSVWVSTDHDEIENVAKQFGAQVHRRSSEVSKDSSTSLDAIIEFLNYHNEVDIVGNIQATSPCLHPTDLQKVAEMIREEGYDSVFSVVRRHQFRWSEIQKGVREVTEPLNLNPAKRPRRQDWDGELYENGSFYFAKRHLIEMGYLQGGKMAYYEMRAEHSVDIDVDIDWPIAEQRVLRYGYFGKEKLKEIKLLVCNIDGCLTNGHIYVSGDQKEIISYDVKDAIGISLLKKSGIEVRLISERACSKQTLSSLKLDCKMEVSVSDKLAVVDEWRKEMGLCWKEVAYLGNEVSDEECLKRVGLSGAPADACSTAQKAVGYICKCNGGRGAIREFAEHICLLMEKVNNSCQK
UniProt P30622: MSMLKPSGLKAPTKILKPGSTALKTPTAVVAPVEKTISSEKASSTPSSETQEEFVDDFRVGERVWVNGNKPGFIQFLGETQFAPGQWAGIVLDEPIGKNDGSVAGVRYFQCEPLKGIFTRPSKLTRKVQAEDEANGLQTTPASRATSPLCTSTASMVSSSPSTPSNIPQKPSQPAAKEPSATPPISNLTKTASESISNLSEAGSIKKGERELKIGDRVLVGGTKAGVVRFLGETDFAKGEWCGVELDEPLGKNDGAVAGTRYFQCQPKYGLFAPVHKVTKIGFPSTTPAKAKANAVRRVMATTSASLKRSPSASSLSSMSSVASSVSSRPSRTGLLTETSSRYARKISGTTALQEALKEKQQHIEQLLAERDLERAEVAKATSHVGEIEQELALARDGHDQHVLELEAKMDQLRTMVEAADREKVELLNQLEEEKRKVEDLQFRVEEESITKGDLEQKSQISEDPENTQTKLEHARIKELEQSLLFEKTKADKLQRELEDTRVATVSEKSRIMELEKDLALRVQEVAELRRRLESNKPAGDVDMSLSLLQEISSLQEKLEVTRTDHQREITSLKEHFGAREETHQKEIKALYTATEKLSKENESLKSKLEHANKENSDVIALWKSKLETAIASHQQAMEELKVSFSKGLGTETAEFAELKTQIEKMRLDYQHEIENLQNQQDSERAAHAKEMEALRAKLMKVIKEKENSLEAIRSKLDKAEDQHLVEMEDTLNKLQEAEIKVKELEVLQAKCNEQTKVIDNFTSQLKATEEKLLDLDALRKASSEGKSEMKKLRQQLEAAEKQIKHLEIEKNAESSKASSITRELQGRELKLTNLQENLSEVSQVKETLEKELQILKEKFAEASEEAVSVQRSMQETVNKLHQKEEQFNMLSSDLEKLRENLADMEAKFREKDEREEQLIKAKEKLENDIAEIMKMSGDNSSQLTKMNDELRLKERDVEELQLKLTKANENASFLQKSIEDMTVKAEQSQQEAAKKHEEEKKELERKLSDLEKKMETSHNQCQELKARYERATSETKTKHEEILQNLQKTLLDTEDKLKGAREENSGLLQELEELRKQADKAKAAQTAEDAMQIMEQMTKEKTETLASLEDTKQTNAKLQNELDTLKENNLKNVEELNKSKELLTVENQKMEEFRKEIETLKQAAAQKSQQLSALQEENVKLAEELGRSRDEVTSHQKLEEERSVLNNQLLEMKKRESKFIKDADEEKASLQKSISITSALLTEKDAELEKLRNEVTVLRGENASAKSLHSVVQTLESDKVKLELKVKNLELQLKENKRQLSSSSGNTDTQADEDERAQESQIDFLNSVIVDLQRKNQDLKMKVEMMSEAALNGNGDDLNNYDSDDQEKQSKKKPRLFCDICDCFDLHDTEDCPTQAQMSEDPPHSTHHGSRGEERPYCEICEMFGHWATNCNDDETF
UniProt Q9H5X1: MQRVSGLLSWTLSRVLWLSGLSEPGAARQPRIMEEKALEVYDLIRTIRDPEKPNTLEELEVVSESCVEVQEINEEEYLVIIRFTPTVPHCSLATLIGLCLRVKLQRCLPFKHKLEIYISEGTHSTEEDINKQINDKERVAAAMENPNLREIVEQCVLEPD
UniProt P62633: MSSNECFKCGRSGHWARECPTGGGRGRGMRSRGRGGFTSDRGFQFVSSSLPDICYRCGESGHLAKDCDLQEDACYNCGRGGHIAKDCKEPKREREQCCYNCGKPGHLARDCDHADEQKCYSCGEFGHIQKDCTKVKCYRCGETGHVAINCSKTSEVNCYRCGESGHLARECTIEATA
UniProt P30085: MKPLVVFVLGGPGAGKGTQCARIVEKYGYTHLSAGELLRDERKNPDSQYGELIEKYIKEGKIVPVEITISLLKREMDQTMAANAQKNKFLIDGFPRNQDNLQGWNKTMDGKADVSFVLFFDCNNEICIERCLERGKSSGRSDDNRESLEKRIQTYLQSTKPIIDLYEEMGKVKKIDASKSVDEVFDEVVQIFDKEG
UniProt Q9NRP2: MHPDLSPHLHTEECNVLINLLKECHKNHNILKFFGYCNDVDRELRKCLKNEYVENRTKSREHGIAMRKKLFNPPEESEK
UniProt Q8N5K1: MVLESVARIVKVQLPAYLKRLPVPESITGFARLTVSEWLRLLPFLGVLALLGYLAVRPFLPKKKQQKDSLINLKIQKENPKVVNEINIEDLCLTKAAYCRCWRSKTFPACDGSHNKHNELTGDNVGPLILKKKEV
UniProt Q9NX76: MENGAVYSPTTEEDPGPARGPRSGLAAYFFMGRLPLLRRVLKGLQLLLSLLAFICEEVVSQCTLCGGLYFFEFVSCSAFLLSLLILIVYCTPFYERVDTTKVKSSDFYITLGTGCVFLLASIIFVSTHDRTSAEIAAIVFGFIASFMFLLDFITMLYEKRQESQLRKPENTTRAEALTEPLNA
UniProt Q9NZ45: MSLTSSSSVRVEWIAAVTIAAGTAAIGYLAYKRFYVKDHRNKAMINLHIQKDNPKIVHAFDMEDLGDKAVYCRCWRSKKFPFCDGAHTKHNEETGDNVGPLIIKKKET
UniProt Q9H078: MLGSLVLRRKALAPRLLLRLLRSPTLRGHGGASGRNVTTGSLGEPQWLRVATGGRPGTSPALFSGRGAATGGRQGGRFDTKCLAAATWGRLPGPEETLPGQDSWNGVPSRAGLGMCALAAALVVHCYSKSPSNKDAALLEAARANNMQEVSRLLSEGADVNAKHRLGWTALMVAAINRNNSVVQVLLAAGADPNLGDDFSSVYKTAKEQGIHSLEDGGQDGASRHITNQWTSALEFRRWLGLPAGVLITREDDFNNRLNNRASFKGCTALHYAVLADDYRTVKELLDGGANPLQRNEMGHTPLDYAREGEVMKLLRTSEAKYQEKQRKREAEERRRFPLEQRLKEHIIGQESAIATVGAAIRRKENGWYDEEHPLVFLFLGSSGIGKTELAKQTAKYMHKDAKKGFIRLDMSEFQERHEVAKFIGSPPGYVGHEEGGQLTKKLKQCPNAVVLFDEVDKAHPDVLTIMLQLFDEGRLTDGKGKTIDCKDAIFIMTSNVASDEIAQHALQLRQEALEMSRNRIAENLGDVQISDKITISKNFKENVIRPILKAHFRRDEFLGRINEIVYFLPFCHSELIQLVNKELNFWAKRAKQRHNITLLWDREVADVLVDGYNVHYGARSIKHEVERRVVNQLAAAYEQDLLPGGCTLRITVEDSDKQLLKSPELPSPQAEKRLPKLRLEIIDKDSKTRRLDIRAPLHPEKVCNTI
UniProt Q92600, whole entry, looked up: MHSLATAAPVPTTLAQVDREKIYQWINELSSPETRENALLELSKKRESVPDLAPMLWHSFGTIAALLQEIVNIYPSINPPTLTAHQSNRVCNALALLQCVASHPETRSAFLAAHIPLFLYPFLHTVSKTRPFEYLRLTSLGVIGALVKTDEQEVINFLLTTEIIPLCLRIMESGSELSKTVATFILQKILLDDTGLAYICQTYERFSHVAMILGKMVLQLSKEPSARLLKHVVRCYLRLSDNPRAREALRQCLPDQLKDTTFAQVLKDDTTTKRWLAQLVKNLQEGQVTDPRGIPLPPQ
UniProt P0C7P0: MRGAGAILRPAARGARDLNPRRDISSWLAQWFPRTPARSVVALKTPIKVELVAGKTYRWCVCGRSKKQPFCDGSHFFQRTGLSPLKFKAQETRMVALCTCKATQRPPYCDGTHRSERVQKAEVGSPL
UniProt P09543: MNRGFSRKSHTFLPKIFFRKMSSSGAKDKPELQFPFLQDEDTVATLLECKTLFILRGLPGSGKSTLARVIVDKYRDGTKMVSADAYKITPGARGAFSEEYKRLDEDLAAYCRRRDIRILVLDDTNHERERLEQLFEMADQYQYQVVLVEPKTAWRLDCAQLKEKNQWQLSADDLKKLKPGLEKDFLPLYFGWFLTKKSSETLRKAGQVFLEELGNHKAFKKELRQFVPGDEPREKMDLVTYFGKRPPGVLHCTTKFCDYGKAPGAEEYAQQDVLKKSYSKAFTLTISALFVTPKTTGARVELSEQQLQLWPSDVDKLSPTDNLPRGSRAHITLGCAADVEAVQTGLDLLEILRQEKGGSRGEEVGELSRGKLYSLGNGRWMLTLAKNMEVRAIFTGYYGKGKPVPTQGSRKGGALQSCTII
UniProt P09497: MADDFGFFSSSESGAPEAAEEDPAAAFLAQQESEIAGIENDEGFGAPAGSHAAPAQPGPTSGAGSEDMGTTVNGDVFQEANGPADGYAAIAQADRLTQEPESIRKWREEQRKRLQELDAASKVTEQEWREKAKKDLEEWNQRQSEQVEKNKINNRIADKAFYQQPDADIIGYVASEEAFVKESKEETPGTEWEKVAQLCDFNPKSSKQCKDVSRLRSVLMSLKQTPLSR
UniProt Q96BR5: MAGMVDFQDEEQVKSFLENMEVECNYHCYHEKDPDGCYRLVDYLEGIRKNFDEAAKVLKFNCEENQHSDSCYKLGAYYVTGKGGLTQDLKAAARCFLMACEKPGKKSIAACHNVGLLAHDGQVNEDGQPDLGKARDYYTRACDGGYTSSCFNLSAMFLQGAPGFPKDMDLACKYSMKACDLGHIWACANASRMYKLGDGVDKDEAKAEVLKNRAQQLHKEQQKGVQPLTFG
UniProt P39059: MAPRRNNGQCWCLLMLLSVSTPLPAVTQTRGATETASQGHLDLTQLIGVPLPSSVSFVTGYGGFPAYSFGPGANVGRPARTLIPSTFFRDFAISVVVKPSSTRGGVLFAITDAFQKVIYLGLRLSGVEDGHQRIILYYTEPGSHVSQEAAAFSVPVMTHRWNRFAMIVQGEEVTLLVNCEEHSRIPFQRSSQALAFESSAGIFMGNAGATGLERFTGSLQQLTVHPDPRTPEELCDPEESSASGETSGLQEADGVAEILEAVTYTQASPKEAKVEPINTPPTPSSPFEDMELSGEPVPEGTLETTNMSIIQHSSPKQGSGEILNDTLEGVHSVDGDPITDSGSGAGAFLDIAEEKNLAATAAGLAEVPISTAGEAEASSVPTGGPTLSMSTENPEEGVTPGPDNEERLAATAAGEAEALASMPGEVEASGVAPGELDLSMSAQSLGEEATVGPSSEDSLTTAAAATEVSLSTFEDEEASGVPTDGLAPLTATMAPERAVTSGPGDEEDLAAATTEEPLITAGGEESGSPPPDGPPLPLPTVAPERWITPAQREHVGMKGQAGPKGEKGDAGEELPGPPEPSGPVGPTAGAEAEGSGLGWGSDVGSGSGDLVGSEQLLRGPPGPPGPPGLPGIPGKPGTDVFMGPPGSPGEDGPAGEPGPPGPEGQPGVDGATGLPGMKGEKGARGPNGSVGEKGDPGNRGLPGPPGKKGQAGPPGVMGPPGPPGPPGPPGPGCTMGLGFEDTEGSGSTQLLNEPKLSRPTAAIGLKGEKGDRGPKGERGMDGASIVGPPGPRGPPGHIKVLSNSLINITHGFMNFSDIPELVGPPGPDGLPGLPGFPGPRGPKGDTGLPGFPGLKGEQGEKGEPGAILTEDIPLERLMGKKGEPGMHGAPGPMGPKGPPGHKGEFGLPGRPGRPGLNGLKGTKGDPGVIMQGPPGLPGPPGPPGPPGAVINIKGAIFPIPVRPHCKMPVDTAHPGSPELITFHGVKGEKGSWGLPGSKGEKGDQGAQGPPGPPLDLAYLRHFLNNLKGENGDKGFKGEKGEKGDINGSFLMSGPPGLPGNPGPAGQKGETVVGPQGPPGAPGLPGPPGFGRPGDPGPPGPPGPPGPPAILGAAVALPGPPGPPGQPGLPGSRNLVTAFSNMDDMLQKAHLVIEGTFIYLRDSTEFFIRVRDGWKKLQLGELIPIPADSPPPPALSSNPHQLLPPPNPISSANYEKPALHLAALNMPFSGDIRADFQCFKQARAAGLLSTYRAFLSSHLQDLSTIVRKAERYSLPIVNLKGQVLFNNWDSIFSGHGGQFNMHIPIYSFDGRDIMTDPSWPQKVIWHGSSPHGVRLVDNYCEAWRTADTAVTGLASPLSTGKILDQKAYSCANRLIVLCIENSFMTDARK

log2 fold change, inactive:
CLIC1 (UniProt O00299) 0.014
CLNS1A (UniProt P54105) 0.036
CMAS (UniProt Q8NFW8) -0.016
CKMT1A (UniProt P12532) -0.035
CLIP1 isoform 1 (UniProt P30622) 0.013
CIAO2A (UniProt Q9H5X1) -0.061
CNBP isoform 6 (UniProt P62633) 0.046
CMPK1 (UniProt P30085) -0.001
CMC2 (UniProt Q9NRP2) 0.012
CISD2 (UniProt Q8N5K1) 0.001
CMTM6 (UniProt Q9NX76) 0.007
CISD1 (UniProt Q9NZ45) -0.051
CLPB isoform 2 (UniProt Q9H078) 0
CNOT9 isoform 2 (UniProt Q92600) -0.006

compound: CCn1cc(-c2ccnc3[nH]c(-c4cccc(CN(C)C)c4)cc23)c(-c2ccc(NC(=O)N(C)C)cc2)n1; experiment: as above
Method in brief: as §1

log2 fold change, inactive:
CISD3 (UniProt P0C7P0) -0.106
CLTA isoform 2 (UniProt P09496) 0.044
CMSS1 (UniProt Q9BQ75) 0.111
COA3 (UniProt Q9Y2R0) -0.016
CKB (UniProt P12277) -0.108
CNP (UniProt P09543) -0.085
CNOT6L (UniProt Q96LI5) 0.019
CLCN7 (UniProt P51798) -0.047
CLEC16A (UniProt Q2KHT3) 0.042
CLTB (UniProt P09497) -0.006
COA7 (UniProt Q96BR5) 0
CLASP1 (UniProt Q7Z460) 0.015
CNTN4 (UniProt Q8IWV2) -0.157
CKAP5 (UniProt Q14008) 0.011
CNOT10 isoform 6 (UniProt Q9H9A5) 0.019
CLIC1 (UniProt O00299) -0.02
CLNS1A (UniProt P54105) -0.017
CMAS (UniProt Q8NFW8) 0.099
CKMT1A (UniProt P12532) 0.018
CLIP1 isoform 1 (UniProt P30622) 0.008
CIAO2A (UniProt Q9H5X1) 0.032
CNBP isoform 6 (UniProt P62633) 0.06
CMPK1 (UniProt P30085) -0.023
CLPP (UniProt Q16740) -0.015
CLPTM1L (UniProt Q96KA5) -0.051
CMC2 (UniProt Q9NRP2) -0.004
CISD2 (UniProt Q8N5K1) -0.031
CISD1 (UniProt Q9NZ45) 0.002
CLPB isoform 2 (UniProt Q9H078) 0.018
CNOT9 isoform 2 (UniProt Q92600) -0.007

compound: CN(C)CC(=O)Nc1ccc2[nH]c(=O)c3ccccc3c2c1; experiment: as above
Method in brief: as §1

log2 fold change, inactive:
CISD3 (UniProt P0C7P0) -0.027
CLTA isoform 2 (UniProt P09496) -0.097
CMSS1 (UniProt Q9BQ75) 0
CNOT8 (UniProt Q9UFF9) -0.15
COA3 (UniProt Q9Y2R0) -0.004
CKB (UniProt P12277) 0.009
CNP (UniProt P09543) 0.002
CNOT6L (UniProt Q96LI5) -0.065
COL15A1 (UniProt P39059) -0.019
CLCN7 (UniProt P51798) -0.01
CLEC16A (UniProt Q2KHT3) 0
CLTB (UniProt P09497) -0.024
COA7 (UniProt Q96BR5) -0.013
CLASP1 (UniProt Q7Z460) 0.032
CNTN4 (UniProt Q8IWV2) 0
CKAP5 (UniProt Q14008) 0.062
CNOT10 isoform 6 (UniProt Q9H9A5) 0.04
CLIC1 (UniProt O00299) -0.015
CLNS1A (UniProt P54105) -0.035
CMAS (UniProt Q8NFW8) -0.018
CKMT1A (UniProt P12532) 0.004
CLIP1 isoform 1 (UniProt P30622) -0.005
CIAO2A (UniProt Q9H5X1) 0.067
CNBP isoform 6 (UniProt P62633) -0.1
CMPK1 (UniProt P30085) 0.052
CLPP (UniProt Q16740) 0.017
CLPTM1L (UniProt Q96KA5) 0.023
CMC2 (UniProt Q9NRP2) -0.016
CISD2 (UniProt Q8N5K1) -0.025
CMTM6 (UniProt Q9NX76) 0.052
CISD1 (UniProt Q9NZ45) -0.009
CLPB isoform 2 (UniProt Q9H078) 0.042
CNOT9 isoform 2 (UniProt Q92600) 0.016
